Assay results as given in PubChem BioAssay AID504327 (National Center for Advancing Translational Sciences (NCATS), 2011).
Hit rate of the full screen: of about 390,000 compounds, about 820 (0.21%) were called active. The shares of active, inactive and inconclusive entries below differ from those in the screen. Calls follow the shape of the dose curve; as a rule, active = well fitted inhibition curve with a large enough effect; inconclusive = small, poorly fitted or top-dose-only effect, or another doubt; inactive = no such curve, though single readings can be large or run the other way. Potencies beside an inconclusive call are fits to weak or partial responses and may not hold up.

By UniProt entry, the sequences of proteins in these tests, tags left out.
UniProt Q92830, whole entry, looked up: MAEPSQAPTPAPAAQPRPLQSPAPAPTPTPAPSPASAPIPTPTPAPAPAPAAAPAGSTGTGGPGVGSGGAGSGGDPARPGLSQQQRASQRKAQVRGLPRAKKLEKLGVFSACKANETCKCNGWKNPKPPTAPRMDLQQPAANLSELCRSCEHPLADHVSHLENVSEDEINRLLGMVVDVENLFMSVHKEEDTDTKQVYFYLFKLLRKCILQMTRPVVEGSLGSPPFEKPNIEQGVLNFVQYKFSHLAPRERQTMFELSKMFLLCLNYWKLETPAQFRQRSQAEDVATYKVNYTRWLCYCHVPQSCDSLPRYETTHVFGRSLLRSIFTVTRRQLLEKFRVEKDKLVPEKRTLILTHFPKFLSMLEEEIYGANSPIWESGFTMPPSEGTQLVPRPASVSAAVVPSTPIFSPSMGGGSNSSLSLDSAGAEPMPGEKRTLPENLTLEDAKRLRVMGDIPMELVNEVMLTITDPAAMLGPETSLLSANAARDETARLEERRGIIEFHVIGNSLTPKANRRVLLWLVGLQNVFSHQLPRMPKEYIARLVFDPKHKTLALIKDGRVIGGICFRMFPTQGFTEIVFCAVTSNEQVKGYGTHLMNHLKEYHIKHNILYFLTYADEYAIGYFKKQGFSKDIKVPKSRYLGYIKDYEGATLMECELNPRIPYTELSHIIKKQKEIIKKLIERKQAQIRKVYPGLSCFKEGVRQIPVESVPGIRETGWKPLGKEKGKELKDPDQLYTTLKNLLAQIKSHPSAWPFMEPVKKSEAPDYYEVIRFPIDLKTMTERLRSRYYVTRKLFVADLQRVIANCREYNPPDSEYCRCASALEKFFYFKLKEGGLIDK

Biological target: Histone acetyltransferase KAT2A (Homo sapiens) (UniProt Q92830)
Experiment: qHTS Assay for Inhibitors of GCN5L2
Conditions: GCN5L2 HAT assay, ThioGlo1 CoA-SH fluorescence; activity change, negative = inhibition: at 58.9 µM (top of the series) unless noted
Method in brief: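 qHTS, 1536-well. 20nM enzyme, pH 7.5 HEPES/EDTA/Tween-20 buffer; 15 min compound preinc., RT. Start: 75uM H3(1-25), 70uM AcCoA, 50uM ThioGlo1. Read Ex340/Em540 at t=0 (autofluorescence flag) and t=20 min.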
% is scaled to controls: 0 for no effect and ±100 for the full control effect; potency is read from the fitted curve at half-maximal effect.

SMILES	activity change, negative = inhibition	Potency
C=C(C)C1CCC(C)=CC1c1c(O)cc(O)cc1CCCCC (stereo unspecified)	inactive: -12.1%	–
O=CN1CCCCC1C1CC[C@H]2CCCCN2C1 (stereo partly specified)	inactive: -0.603%	–
Cc1ccc(N2C(=O)NC(=O)/C(=C\c3ccc(N4CCOCC4)cc3)C2=O)cc1	inactive: -0.0291%	–
COC(=O)c1sccc1NC(=O)c1ccc(C#N)cc1	–	inconclusive: 0.316 µM [inhibitor, full curve, poor fit]
CCC1(OC(=O)CN)C(=O)OCc2c1cc1n(c2=O)Cc2cc3ccccc3nc2-1 (stereo unspecified)	–	inconclusive: 3.16 µM [inhibitor, partial curve, poor fit]
Cc1ccsc1C(=O)C1CCCN(Cc2ccc(-n3cccn3)cc2)C1 (stereo unspecified)	–	inconclusive: 7.08 µM [inhibitor, single point]
CC(C)COc1ccc(Cc2c(O)[nH]c(=S)[nH]c2=O)cc1	–	inconclusive: 22.4 µM [inhibitor, partial curve]
CN1C(=O)/C(=C/c2ccc(Cl)s2)C(=O)NC1=S	inactive: -18.2%	–
Cn1c(CCCC(=O)O)nc2cc(N(CCCl)CCCl)ccc21	–	inconclusive: 28.2 µM [inhibitor, partial curve, poor fit]
CCN(CC)c1ccc(C=C2C(=O)NC(=S)NC2=O)cc1	inactive: -22.4%	–
CC(C)Oc1ccc(CNC(=O)Oc2ccccc2)cc1	–	inconclusive: 0.794 µM [inhibitor, single point]
COC(=O)C[C@@](O)(CCC(C)(C)O)C(=O)O[C@@H]1C(OC)=C[C@]23CCCN2CCc2cc4c(cc2[C@@H]13)OCO4	–	inconclusive: 2.24 µM [inhibitor, partial curve]
CC(NC(C)(C)C)C(=O)c1cccc(Cl)c1 (stereo unspecified)	–	inconclusive: 39.8 µM [inhibitor, single point]
Cc1cc(/C=C2\C(=O)NC(=O)N(c3ccc(Cl)cc3)C2=O)c(C)n1-c1cccc(C(=O)O)c1	inactive: -22.8%	–
CN(C=O)CP(=O)(O)CN(C)C=O	–	inconclusive: 0.891 µM [inhibitor, single point]
CN1CCCC(C(O)(c2ccccc2)c2ccccc2)C1 (stereo unspecified)	inactive: -0.525%	–
CCN1C(=O)/C(=C\c2ccc([N+](=O)[O-])s2)C(=O)NC1=S	–	active: 8.91 µM
CC(=O)c1cccc(NC(=O)N2C[C@H]3C[C@@H](C2)c2cccc(=O)n2C3)c1	–	inconclusive: 4.47 µM [inhibitor, single point]
CCOC(=O)CC(SP(=S)(OC)OC)C(=O)OCC (stereo unspecified)	–	inconclusive: 39.8 µM [inhibitor, single point]
NCC(CC(=O)O)c1ccc(Cl)cc1 (stereo unspecified)	–	inconclusive: 39.8 µM [inhibitor, single point]
CC(N)Cc1ccc(O)cc1 (stereo unspecified)	–	inconclusive: 7.08 µM [inhibitor, single point]
Cn1c(CNC(=O)c2ccco2)nnc1SCC(=O)N1c2ccccc2Sc2ccccc21	–	inconclusive: 25.1 µM [inhibitor, single point]
CCCCCc1cc(O)c2c(c1)OC(C)(C)[C@@H]1CCC(C(=O)O)=C[C@H]21	–	inconclusive: 39.8 µM [inhibitor, single point]

SMILES	activity change, negative = inhibition	Potency
CC(=O)[C@@]1(O)CC[C@H]2[C@@H]3CCC4=CC(=O)CC[C@]4(C)[C@H]3CC[C@@]21C	–	inconclusive: 35.5 µM [inhibitor, single point]
CCOc1cccc(CNCCc2c(C)[nH]c3ccc(OC(F)(F)F)cc23)c1O	–	inconclusive: 0.141 µM [inhibitor, full curve, poor fit]
CC(=O)OC1CC2C(C)(C)C(=O)C=C[C@]2(C)C2CC[C@]3(C)C(=CC(=O)OC3c3ccoc3)[C@]12C (stereo partly specified)	inactive: 11.3%	–
CCN(CC)C(=O)c1ccc2c(c1)C1C(Cl)C(Sc3ccccc3[N+](=O)[O-])CC1C(C(=O)O)N2 (stereo unspecified)	–	active: 12.6 µM
O=[N+]([O-])c1ccc(O)c([N+](=O)[O-])c1	–	inconclusive: 11.2 µM [inhibitor, partial curve]
CC(C)CCCC(C)C1CCC2C3CC(O)[C@@]4(O)CC(O)CC[C@@]4(C)C3CC[C@@]12C (stereo partly specified)	–	inconclusive: 31.6 µM [inhibitor, single point]
COCc1c(CN)cnc(C)c1N	inactive: -5.52%	–
Cc1ccccc1N1CCN(C2CCCN(C(=O)Cc3c(C)noc3C)C2)CC1 (stereo unspecified)	–	inconclusive: 7.08 µM [inhibitor, single point]
O=C(N/N=C1/CN2CCC1CC2)c1cccc(O)c1	inactive: 3.95%	–
COc1ncccc1C(=O)NCC(CC(=O)O)c1ccccc1 (stereo unspecified)	inactive: 0.371%	–
O=S1(=O)N(CCN2CC=C(c3c[nH]c4cc(F)ccc34)CC2)c2cccc3c2N1CCC3	–	inconclusive: 35.5 µM [inhibitor, single point]
CCOC(=O)CNC(=O)CSP(=S)(OCC)OCC	–	inconclusive: 39.8 µM [inhibitor, single point]
CCOc1ccc(NC(=O)CCNC(=O)N2C[C@H]3C[C@@H](C2)c2cccc(=O)n2C3)cc1	–	inconclusive: 7.08 µM [inhibitor, single point]
COc1ccccc1CN1CCCCC1c1cccnc1 (stereo unspecified)	inactive: 3.27%	–
CC(=O)CC(c1ccccc1)c1c(O)c2ccc(O)cc2oc1=O (stereo unspecified)	inactive: -26.2%	–
Cc1ccc(/C=C2\C(=O)NC(=O)N(CC3CCCO3)C2=O)s1 (stereo unspecified)	inactive: -2.73%	–
O=c1oc2ccccc2c(O)c1C(c1ccc([N+](=O)[O-])cc1)c1c(O)c2ccccc2oc1=O	–	active: 22.4 µM
Cc1cccc(C(=O)Nc2ccc(Cl)cc2C(=O)c2ccccc2)c1	–	inconclusive: 2 µM [inhibitor, partial curve, poor fit]
NC(Cc1ccc(Oc2cc(I)c(O)c(I)c2)c(I)c1)C(=O)O (stereo unspecified)	–	active: 14.1 µM
NC1C=CC=C(C(=O)O)C1 (stereo unspecified)	–	inconclusive: 35.5 µM [inhibitor, single point]
N/C(=N\N=C/c1ccc(-c2ccc(O)c(C(=O)O)c2)o1)N[N+](=O)[O-]	–	inconclusive: 7.08 µM [inhibitor, single point]
CCCOc1ccc(N2C(=O)CC(N3CC=C(c4ccccc4)CC3)C2=O)cc1 (stereo unspecified)	inactive: 1.74%	–
CC(=O)[O][Hg][c]1ccccc1	–	inconclusive: 0.141 µM [inhibitor, full curve]

In the list so far, 2 contain fluorine:
SMILES	activity change, negative = inhibition	Potency
CCOc1cccc(CNCCc2c(C)[nH]c3ccc(OC(F)(F)F)cc23)c1O	–	inconclusive: 0.141 µM [inhibitor, full curve, poor fit]
O=S1(=O)N(CCN2CC=C(c3c[nH]c4cc(F)ccc34)CC2)c2cccc3c2N1CCC3	–	inconclusive: 35.5 µM [inhibitor, single point]
